According to PMC5963844:
Results are given in words; binding and its absence hold for the method and conditions named. In cells and extracts the contact can be indirect. Some results given as binding are weak or reduced against the parent protein; the word gives no strength. Tags and fused reporters may be left off the sequences shown.

Target: T1, Samp1a–YFP (human) (UniProt Q5SNT2)
T1 sequence: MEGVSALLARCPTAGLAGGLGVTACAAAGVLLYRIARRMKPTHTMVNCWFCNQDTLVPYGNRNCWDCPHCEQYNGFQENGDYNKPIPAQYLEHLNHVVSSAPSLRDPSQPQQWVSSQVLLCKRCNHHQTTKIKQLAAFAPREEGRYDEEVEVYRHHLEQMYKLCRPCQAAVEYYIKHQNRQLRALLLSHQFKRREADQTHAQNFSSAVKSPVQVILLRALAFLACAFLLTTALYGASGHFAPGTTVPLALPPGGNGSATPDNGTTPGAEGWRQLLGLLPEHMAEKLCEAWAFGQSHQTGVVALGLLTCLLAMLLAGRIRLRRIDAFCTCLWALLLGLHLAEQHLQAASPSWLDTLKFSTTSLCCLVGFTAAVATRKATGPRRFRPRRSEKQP
Assay: co-IP; membrane protein cross-link immunoprecipitation (MCLIP): cells synchronised in metaphase, in vivo cross-linking with 1 mM DSP for 15 min, lysis in 7 M urea and 1% Triton X-100, diluted 8x with PBS, Samp1a–YFP captured on GFP trap agarose beads 2 h at 4°C, wash 250 mM NaCl, 10 mM Hepes, 0.5% Triton X-100, pH 7.4, cross-link reversed with DTT, western blot

B1: HAUS6 subunit of the Augmin complex (protein, UniProt Q7Z4H7 1-955)
chain: MSSASVTAFEKEHLWMYLQALGFEPGPATIACGKIVSHTHLGVNMFDKLNRDAFHIISYFLFQVLDQSLTKEVFKFCWPPFDQKSDTEFRKHCCEWIKRISGECGSSFPQVVGSLFLSPGGPKFIHLMYHFARFVAMKYIKSNSKNSSHHFVETFNIKPQDLHKCIARCHFARSRFLQILQRQDCVTQKYQENAQLSVKQVRNLRSECIGLENQIKKMEPYDDHSNMEEKIQKVRSLWASVNETLMFLEKEREVVSSVLSLVNQYALDGTNVAINIPRLLLDKIEKQMFQLHIGNVYEAGKLNLLTVIQLLNEVLKVMKYERCQADQARLTVDLHYLEKETKFQKERLSDLKHMRYRIKDDLTTIRHSVVEKQGEWHKKWKEFLGLSPFSLIKGWTPSVDLLPPMSPLSFDPASEEVYAKSILCQYPASLPDAHKQHNQENGCRGDSDTLGALHDLANSPASFLSQSVSSSDRNSVTVLEKDTKMGTPKEKNEAISKKIPEFEVENSPLSDVAKNTESSAFGGSLPAKKSDPFQKEQDHLVEEVARAVLSDSPQLSEGKEIKLEELIDSLGSNPFLTRNQIPRTPENLITEIRSSWRKAIEMEENRTKEPIQMDAEHREVLPESLPVLHNQREFSMADFLLETTVSDFGQSHLTEEKVISDCECVPQKHVLTSHIDEPPTQNQSDLLNKKVICKQDLECLAFTKLSETSRMETFSPAVGNRIDVMGGSEEEFMKILDHLEVSCNKPSTNKTMLWNSFQISSGISSKSFKDNDFGILHETLPEEVGHLSFNSSSSSEANFKLEPNSPMHGGTLLEDVVGGRQTTPESDFNLQALRSRYEALKKSLSKKREESYLSNSQTPERHKPELSPTPQNVQTDDTLNFLDTCDLHTEHIKPSLRTSIGERKRSLSPLIKFSPVEQRLRTTIACSLGELPNLKEEDILNKSLDAKEPPSDLTR
In the case of B1, the binding is reported as “binds”.
